Laboratory results published in US20210130473A1, “TGFßR1 INHIBITOR-ASGR ANTIBODY CONJUGATES AND USES THEREOF” (Silverback Therapeutics, Inc., priority 2019, published 2021).
Results are given in words; binding and its absence hold for the method and conditions named. Some binding calls cover weakened binding; strength is not graded here.

Molecular target: T1, ASGR1 (form and assay not stated) (Homo sapiens (Human)) (UniProt P07306)
T1 sequence: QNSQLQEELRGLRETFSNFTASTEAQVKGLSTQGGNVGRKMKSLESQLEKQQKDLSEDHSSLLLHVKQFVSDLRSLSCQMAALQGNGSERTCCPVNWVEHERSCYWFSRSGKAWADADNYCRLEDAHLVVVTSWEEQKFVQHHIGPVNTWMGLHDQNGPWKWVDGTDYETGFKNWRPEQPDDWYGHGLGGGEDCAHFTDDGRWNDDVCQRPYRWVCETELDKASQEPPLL
Assay: binding screen, assay not described

| Binder | binding |
| --- | --- |
| J4F (parental chimeric antibody of Table 9) (antibody, IgG1, V domains shown) VH: QVQLQQSGDDLVKPGASVKLSCKASGYTFTSYWINWIKQRPGQGLEWIGRIVPGSGSTYYNEMFKDKATLTVDTSSSTAYIQLSSLSSEDSAVYFCARKPNFDVWGAGTTVTVSS VL: DIVMTQSQKFMSTSVGDRVSVTCKASQNVGTNVAWYQQKPGQSPKAVIYSASYRFSGVPDRLTGSGSGTDFTLTITNVQSEDLAEYFCQQYNSYPLTFGAGTKLELK | binds |
| hzJ4F-1 (antibody, IgG1, V domains shown) VH: QVQLVQSGAEVKKPGASVKVSCKASGYTFTSYWINWVRQAPGQGLEWMGRIVPGSGSTYYNEMFKDRVTMTRDTSTSTVYMELSSLRSEDTAVYYCARKPNFDVWGQGTTVTVSS VL: DIQMTQSPSSLSASVGDRVTITCKASQNVGTNVAWYQQKPGKAPKLLIYSASYRFSGVPSRFSGSGSGTDFTLTISSLQPEDFATYYCQQYNSYPLTFGGGTKVEIK | binds |
| hzJ4F-2 (antibody, IgG1, V domains shown) VH: QVQLVQSGAEVKKPGASVKVSCKASGYTFTSYWINWVRQAPGQGLEWMGRIVPGSGSTYYNEMFKDKATLTVDTSTSTVYMELSSLRSEDTAVYYCARKPNFDVWGQGTTVTVSS VL: DIQMTQSPSSLSASVGDRVTITCKASQNVGTNVAWYQQKPGKAPKLLIYSASYRFSGVPSRFSGSGSGTDFTLTISSLQPEDFATYYCQQYNSYPLTFGGGTKVEIK | binds |
| hzJ4F-3 (antibody, IgG1, V domains shown) VH: QVQLVQSGAEVKKPGASVKVSCKASGYTFTSYWINWVRQAPGQGLEWMGRIVPGSGSTYYNEMFKDKATMTRDTSTSTVYMELSSLRSEDTAVYYCARKPNFDVWGQGTTVTVSS VL: DIQMTQSPSSLSASVGDRVTITCKASQNVGTNVAWYQQKPGKAPKLLIYSASYRFSGVPSRFSGSGSGTDFTLTISSLQPEDFATYYCQQYNSYPLTFGGGTKVEIK | binds |
| hzJ4F-4 (antibody, IgG1, V domains shown) VH: QVQLVQSGAEVKKPGASVKVSCKASGYTFTSYWINWVRQAPGQGLEWMGRIVPGSGSTYYNEMFKDRVTLTVDTSTSTVYMELSSLRSEDTAVYYCARKPNFDVWGQGTTVTVSS VL: DIQMTQSPSSLSASVGDRVTITCKASQNVGTNVAWYQQKPGKAPKLLIYSASYRFSGVPSRFSGSGSGTDFTLTISSLQPEDFATYYCQQYNSYPLTFGGGTKVEIK | binds |
| hzJ4F-5 (antibody, IgG1, V domains shown) VH: QVQLVQSGAEVKKPGASVKVSCKASGYTFTSYWINWVRQAPGQGLEWMGRIVPGSGSTYYNEMFKDRVTMTVDTSTSTVYMELSSLRSEDTAVYYCARKPNFDVWGQGTTVTVSS VL: DIQMTQSPSSLSASVGDRVTITCKASQNVGTNVAWYQQKPGKAPKLLIYSASYRFSGVPSRFSGSGSGTDFTLTISSLQPEDFATYYCQQYNSYPLTFGGGTKVEIK | binds |
| hzJ4F-6 (antibody, IgG1, V domains shown) VH: QVQLVQSGAEVKKPGASVKVSCKASGYTFTSYWINWVRQAPGQGLEWMGRIVPGSGSTYYNEMFKDRVTMTRDTSTSTVYMELSSLRSEDTAVYYCARKPNFDVWGQGTTVTVSS VL: DIVMTQSPSSLSASVGDRVTITCKASQNVGTNVAWYQQKPGKAPKLLIYSASYRFSGVPSRFSGSGSGTDFTLTISSLQPEDFATYYCQQYNSYPLTFGGGTKVEIK | binds |
| hzJ4F-7 (antibody, IgG1, V domains shown) VH: QVQLVQSGAEVKKPGASVKVSCKASGYTFTSYWINWVRQAPGQGLEWMGRIVPGSGSTYYNEMFKDKATLTVDTSTSTVYMELSSLRSEDTAVYYCARKPNFDVWGQGTTVTVSS VL: DIVMTQSPSSLSASVGDRVTITCKASQNVGTNVAWYQQKPGKAPKLLIYSASYRFSGVPSRFSGSGSGTDFTLTISSLQPEDFATYYCQQYNSYPLTFGGGTKVEIK | binds |
| hzJ4F-8 (antibody, IgG1, V domains shown) VH: QVQLVQSGAEVKKPGASVKVSCKASGYTFTSYWINWVRQAPGQGLEWMGRIVPGSGSTYYNEMFKDKATMTRDTSTSTVYMELSSLRSEDTAVYYCARKPNFDVWGQGTTVTVSS VL: DIVMTQSPSSLSASVGDRVTITCKASQNVGTNVAWYQQKPGKAPKLLIYSASYRFSGVPSRFSGSGSGTDFTLTISSLQPEDFATYYCQQYNSYPLTFGGGTKVEIK | binds |
| hzJ4F-9 (antibody, IgG1, V domains shown) VH: QVQLVQSGAEVKKPGASVKVSCKASGYTFTSYWINWVRQAPGQGLEWMGRIVPGSGSTYYNEMFKDRVTLTVDTSTSTVYMELSSLRSEDTAVYYCARKPNFDVWGQGTTVTVSS VL: DIVMTQSPSSLSASVGDRVTITCKASQNVGTNVAWYQQKPGKAPKLLIYSASYRFSGVPSRFSGSGSGTDFTLTISSLQPEDFATYYCQQYNSYPLTFGGGTKVEIK | binds |
| hzJ4F-10 (antibody, IgG1, V domains shown) VH: QVQLVQSGAEVKKPGASVKVSCKASGYTFTSYWINWVRQAPGQGLEWMGRIVPGSGSTYYNEMFKDRVTMTVDTSTSTVYMELSSLRSEDTAVYYCARKPNFDVWGQGTTVTVSS VL: DIVMTQSPSSLSASVGDRVTITCKASQNVGTNVAWYQQKPGKAPKLLIYSASYRFSGVPSRFSGSGSGTDFTLTISSLQPEDFATYYCQQYNSYPLTFGGGTKVEIK | binds |
| hzJ4F-11 (antibody, IgG1, V domains shown) VH: QVQLVQSGAEVKKPGASVKVSCKASGYTFTSYWINWVRQAPGQGLEWMGRIVPGSGSTYYNEMFKDRVTMTRDTSTSTVYMELSSLRSEDTAVYYCARKPNFDVWGQGTTVTVSS VL: DIQMTQSPSSLSASVGDRVTITCKASQNVGTNVAWYQQKPGKAPKALIYSASYRFSGVPSRFSGSGSGTDFTLTISSLQPEDFATYYCQQYNSYPLTFGGGTKVEIK | binds |
| hzJ4F-12 (antibody, IgG1, V domains shown) VH: QVQLVQSGAEVKKPGASVKVSCKASGYTFTSYWINWVRQAPGQGLEWMGRIVPGSGSTYYNEMFKDKATLTVDTSTSTVYMELSSLRSEDTAVYYCARKPNFDVWGQGTTVTVSS VL: DIQMTQSPSSLSASVGDRVTITCKASQNVGTNVAWYQQKPGKAPKALIYSASYRFSGVPSRFSGSGSGTDFTLTISSLQPEDFATYYCQQYNSYPLTFGGGTKVEIK | binds |
| hzJ4F-13 (antibody, IgG1, V domains shown) VH: QVQLVQSGAEVKKPGASVKVSCKASGYTFTSYWINWVRQAPGQGLEWMGRIVPGSGSTYYNEMFKDKATMTRDTSTSTVYMELSSLRSEDTAVYYCARKPNFDVWGQGTTVTVSS VL: DIQMTQSPSSLSASVGDRVTITCKASQNVGTNVAWYQQKPGKAPKALIYSASYRFSGVPSRFSGSGSGTDFTLTISSLQPEDFATYYCQQYNSYPLTFGGGTKVEIK | binds |
| hzJ4F-14 (antibody, IgG1, V domains shown) VH: QVQLVQSGAEVKKPGASVKVSCKASGYTFTSYWINWVRQAPGQGLEWMGRIVPGSGSTYYNEMFKDRVTLTVDTSTSTVYMELSSLRSEDTAVYYCARKPNFDVWGQGTTVTVSS VL: DIQMTQSPSSLSASVGDRVTITCKASQNVGTNVAWYQQKPGKAPKALIYSASYRFSGVPSRFSGSGSGTDFTLTISSLQPEDFATYYCQQYNSYPLTFGGGTKVEIK | binds |
| hzJ4F-15 (antibody, IgG1, V domains shown) VH: QVQLVQSGAEVKKPGASVKVSCKASGYTFTSYWINWVRQAPGQGLEWMGRIVPGSGSTYYNEMFKDRVTMTVDTSTSTVYMELSSLRSEDTAVYYCARKPNFDVWGQGTTVTVSS VL: DIQMTQSPSSLSASVGDRVTITCKASQNVGTNVAWYQQKPGKAPKALIYSASYRFSGVPSRFSGSGSGTDFTLTISSLQPEDFATYYCQQYNSYPLTFGGGTKVEIK | binds |
| hzJ4F-16 (antibody, IgG1, V domains shown) VH: QVQLVQSGAEVKKPGASVKVSCKASGYTFTSYWINWVRQAPGQGLEWMGRIVPGSGSTYYNEMFKDRVTMTRDTSTSTVYMELSSLRSEDTAVYYCARKPNFDVWGQGTTVTVSS VL: DIVMTQSPSSLSASVGDRVTITCKASQNVGTNVAWYQQKPGKAPKALIYSASYRFSGVPSRFSGSGSGTDFTLTISSLQPEDFATYYCQQYNSYPLTFGGGTKVEIK | binds |
| hzJ4F-17 (antibody, IgG1, V domains shown) VH: QVQLVQSGAEVKKPGASVKVSCKASGYTFTSYWINWVRQAPGQGLEWMGRIVPGSGSTYYNEMFKDKATLTVDTSTSTVYMELSSLRSEDTAVYYCARKPNFDVWGQGTTVTVSS VL: DIVMTQSPSSLSASVGDRVTITCKASQNVGTNVAWYQQKPGKAPKALIYSASYRFSGVPSRFSGSGSGTDFTLTISSLQPEDFATYYCQQYNSYPLTFGGGTKVEIK | binds |
| hzJ4F-18 (antibody, IgG1, V domains shown) VH: QVQLVQSGAEVKKPGASVKVSCKASGYTFTSYWINWVRQAPGQGLEWMGRIVPGSGSTYYNEMFKDKATMTRDTSTSTVYMELSSLRSEDTAVYYCARKPNFDVWGQGTTVTVSS VL: DIVMTQSPSSLSASVGDRVTITCKASQNVGTNVAWYQQKPGKAPKALIYSASYRFSGVPSRFSGSGSGTDFTLTISSLQPEDFATYYCQQYNSYPLTFGGGTKVEIK | binds |
| hzJ4F-19 (antibody, IgG1, V domains shown) VH: QVQLVQSGAEVKKPGASVKVSCKASGYTFTSYWINWVRQAPGQGLEWMGRIVPGSGSTYYNEMFKDRVTLTVDTSTSTVYMELSSLRSEDTAVYYCARKPNFDVWGQGTTVTVSS VL: DIVMTQSPSSLSASVGDRVTITCKASQNVGTNVAWYQQKPGKAPKALIYSASYRFSGVPSRFSGSGSGTDFTLTISSLQPEDFATYYCQQYNSYPLTFGGGTKVEIK | binds |
| hzJ4F-20 (antibody, IgG1, V domains shown) VH: QVQLVQSGAEVKKPGASVKVSCKASGYTFTSYWINWVRQAPGQGLEWMGRIVPGSGSTYYNEMFKDRVTMTVDTSTSTVYMELSSLRSEDTAVYYCARKPNFDVWGQGTTVTVSS VL: DIVMTQSPSSLSASVGDRVTITCKASQNVGTNVAWYQQKPGKAPKALIYSASYRFSGVPSRFSGSGSGTDFTLTISSLQPEDFATYYCQQYNSYPLTFGGGTKVEIK | binds |
